Results as given in paper PMC9941515.
No constants are given. Whether binding was seen depends on the method and setting. Binding seen in cells or lysates may run through a third protein. Some results given as binding are weak or reduced against the parent protein; the word gives no strength. Where a sequence is shown, tags or fusion partners need not be part of it.

Biological target: T1, ODF4-EGFP (outer dense fiber 4 fused to EGFP) (mouse) (UniProt Q8VI88)
T1 sequence: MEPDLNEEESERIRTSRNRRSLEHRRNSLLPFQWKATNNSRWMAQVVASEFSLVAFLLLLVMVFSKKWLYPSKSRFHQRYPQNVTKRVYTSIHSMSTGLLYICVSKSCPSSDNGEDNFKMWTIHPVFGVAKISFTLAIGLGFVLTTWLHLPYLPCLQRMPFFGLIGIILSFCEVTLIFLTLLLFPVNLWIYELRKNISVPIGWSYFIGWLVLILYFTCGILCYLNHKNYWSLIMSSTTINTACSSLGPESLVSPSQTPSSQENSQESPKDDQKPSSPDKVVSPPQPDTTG
Assay: co-IP; IP with mouse monoclonal anti-GFP antibody (B2) on Dynabeads Protein G from RIPA buffer extracts of Tg(Odf4-Egfp)Odf4+/+ spermatozoa; western blotting with anti-AK1 and anti-AK2; Odf4-/- sperm extract as negative control

B1: Adenylate kinase 1 (AK1) (enzyme, UniProt Q9R0Y5 1-194)
chain: MEEKLKKAKIIFVVGGPGSGKGTQCEKIVQKYGYTHLSTGDLLRAEVSSGSERGKKLSAIMEKGELVPLDTVLDMLRDAMLAKVDSSNGFLIDGYPREVKQGEEFEQKIGQPTLLLYVDAGAETMTQRLLKRGETSGRVDDNEETIKKRLETYYNATEPVISFYDKRGIVRKVNAEGTVDTVFSEVCTYLDSLK
Question: How did the binding turn out when B1 was run?
Answer: binds
